From publication PMC9749463 (European Journal of Pharmacology, 2021)

By UniProt entry, the sequences of proteins in these tests, tags left out.
UniProt Q14524, whole entry: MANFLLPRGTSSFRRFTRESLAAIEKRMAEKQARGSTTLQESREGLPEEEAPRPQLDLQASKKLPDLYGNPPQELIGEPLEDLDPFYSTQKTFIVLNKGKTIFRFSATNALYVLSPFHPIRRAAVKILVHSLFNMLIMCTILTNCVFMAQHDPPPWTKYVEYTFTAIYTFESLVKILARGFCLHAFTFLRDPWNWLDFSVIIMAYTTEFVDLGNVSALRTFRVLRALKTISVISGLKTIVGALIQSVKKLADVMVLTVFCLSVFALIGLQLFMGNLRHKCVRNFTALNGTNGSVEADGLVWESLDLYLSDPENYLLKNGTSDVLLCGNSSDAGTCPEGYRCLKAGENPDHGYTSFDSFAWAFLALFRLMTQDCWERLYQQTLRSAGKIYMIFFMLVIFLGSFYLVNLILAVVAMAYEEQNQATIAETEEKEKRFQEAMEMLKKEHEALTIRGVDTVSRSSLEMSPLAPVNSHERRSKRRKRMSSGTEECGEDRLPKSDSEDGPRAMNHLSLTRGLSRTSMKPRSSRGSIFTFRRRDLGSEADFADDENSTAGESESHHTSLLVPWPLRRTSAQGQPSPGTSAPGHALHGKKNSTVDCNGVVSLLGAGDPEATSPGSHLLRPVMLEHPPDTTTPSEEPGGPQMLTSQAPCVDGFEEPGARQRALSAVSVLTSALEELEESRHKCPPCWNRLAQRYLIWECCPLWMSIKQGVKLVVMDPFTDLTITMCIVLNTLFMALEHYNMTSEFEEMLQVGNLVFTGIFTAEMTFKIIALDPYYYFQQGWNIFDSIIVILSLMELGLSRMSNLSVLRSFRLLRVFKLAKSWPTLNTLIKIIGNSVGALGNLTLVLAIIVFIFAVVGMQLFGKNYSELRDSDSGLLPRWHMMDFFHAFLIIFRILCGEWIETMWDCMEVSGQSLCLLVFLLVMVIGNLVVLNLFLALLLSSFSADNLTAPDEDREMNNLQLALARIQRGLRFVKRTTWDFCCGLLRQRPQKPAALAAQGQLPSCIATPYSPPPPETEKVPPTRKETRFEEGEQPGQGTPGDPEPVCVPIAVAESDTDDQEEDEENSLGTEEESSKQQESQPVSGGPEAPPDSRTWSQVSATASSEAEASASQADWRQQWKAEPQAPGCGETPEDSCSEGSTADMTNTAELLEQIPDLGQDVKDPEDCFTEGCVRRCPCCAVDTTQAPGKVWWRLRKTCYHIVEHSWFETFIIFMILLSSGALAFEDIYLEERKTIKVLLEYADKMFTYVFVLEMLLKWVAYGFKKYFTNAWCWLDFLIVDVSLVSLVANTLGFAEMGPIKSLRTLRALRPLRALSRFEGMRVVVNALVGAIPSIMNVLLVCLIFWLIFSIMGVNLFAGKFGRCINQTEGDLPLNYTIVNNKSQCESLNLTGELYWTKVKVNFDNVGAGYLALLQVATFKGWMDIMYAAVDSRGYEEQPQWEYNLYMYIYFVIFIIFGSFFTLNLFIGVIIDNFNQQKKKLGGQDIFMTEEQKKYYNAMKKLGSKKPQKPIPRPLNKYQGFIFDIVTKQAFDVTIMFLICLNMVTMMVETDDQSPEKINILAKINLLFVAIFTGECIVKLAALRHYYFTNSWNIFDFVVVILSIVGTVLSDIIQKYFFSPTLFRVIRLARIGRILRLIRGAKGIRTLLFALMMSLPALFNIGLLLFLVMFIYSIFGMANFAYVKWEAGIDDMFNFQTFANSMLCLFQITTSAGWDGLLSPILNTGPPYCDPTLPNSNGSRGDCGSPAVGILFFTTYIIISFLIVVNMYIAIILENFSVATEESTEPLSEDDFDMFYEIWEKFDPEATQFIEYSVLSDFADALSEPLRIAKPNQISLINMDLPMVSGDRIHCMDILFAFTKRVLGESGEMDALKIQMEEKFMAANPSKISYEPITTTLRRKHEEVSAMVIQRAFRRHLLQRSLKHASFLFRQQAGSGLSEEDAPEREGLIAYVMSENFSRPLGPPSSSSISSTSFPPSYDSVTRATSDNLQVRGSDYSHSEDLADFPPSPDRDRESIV

Molecular target: NaV1.5 (Homo sapiens, UniProt Q14524)
Experiment: automated patch-clamp
Format: cell-based
Details: lidocaine 3 mM

CCN(CC)CC(=O)Nc1c(C)cccc1C [lidocaine, reference compound]
effect on NaV1.5 currents: abolished all currents
